Measurements reported in PubChem BioAssay AID602196 (INSERM, 2012)
The whole screen tested about 23,000 reagents; this is a part drawn at random. 455 of all reagents (2%) were called active. 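Active includes both protection and sensitisation; some change values fall well beyond the stated -50 to +50 range.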 Entries without a mark were called inactive. Reagents against one gene are numbered here. Not all columns of the deposit are shown. No sequences are given here. Not given: the amount of reagent.

Screen: 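Knock-downs that protect lung cancer cells from cisplatin or sensitise them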
System: human A549 lung cancer cells
Knock-down reagent: siRNA pair against human genes
Time to read-out: 48 h transfection before cisplatin; time from cisplatin to read-out not stated
Challenge: cisplatin at a dose killing half of control-siRNA cells; exact dose and duration not given
Measured: 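Shift in cisplatin death relative to control siRNA, from -50 (all cells die) to +50 (no cells die); siRNAs harmful on their own scored 0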
Reading the numbers: two-siRNA summed score (-2 to +2): higher = both siRNAs protect from cisplatin killing; -2 means both sensitise
Hit rule: 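siRNAs harmful alone (LDH or WST-1) get 0; others get +1 for less and -1 for more cisplatin killing; genes are active when the two siRNAs give the same sign, summing to ±2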
Meaning of the calls: active = both siRNAs shift cisplatin killing the same way; inactive = no consistent shift, or siRNA harmful alone

no.	Target gene	reagent no.	two-siRNA summed score (-2 to +2)
1	LOC284393	1	0
2	S100A13	1	0
3	ABCB7	1	-1
4	CYB561	1	0
5	CYB561	2	0
6	CLDN23	1	1
7	ALKBH6	1	0
8	LOC391014	1	1
9	DLX3	1	0
10	PLPP1	1	0
11	FBXO7	1	1
12	LOC389267	1	0
13	LOC390683	1	1
14	OR2AT4	1	0
15	SALL4	1	0
16	CREBRF	1	0
17	LOC401050	1	0
18	USP6	1	0
19	SYCP2L	1	0
20	CSN1S2AP	1	0
21	OR10K1	1	0
22	LOC440851	1	0
23	ART4	1	0
24	LOC390927	1	0
25	MANSC1	1	0
26	TEX15	1	0

5 of these entries, set out differently.
Target gene	reagent no.	two-siRNA summed score (-2 to +2)
ALKBH6	1	0
LOC391014	1	1
DLX3	1	0
PLPP1	1	0
FBXO7	1	1

Further reagents follow.
no.	Target gene	reagent no.	two-siRNA summed score (-2 to +2)
27	RND3	1	0
28	CNIH2	1	0
29	DRAM1	1	-1
30	MFAP2	1	-1
31	NME1	1	0
32	WDR88	1	0
33	PEDS1	1	0
34	AUP1	1	-1
35	TAS2R13	1	0
36	LOC441560	1	0
37	CLDND2	1	-1
38	ABITRAM	1	0
39	NDUFB5	1	-1
